Experiment [1] concerns the target T1, recombinant human MACC1 (human) (UniProt Q6ZN28).
T1 sequence: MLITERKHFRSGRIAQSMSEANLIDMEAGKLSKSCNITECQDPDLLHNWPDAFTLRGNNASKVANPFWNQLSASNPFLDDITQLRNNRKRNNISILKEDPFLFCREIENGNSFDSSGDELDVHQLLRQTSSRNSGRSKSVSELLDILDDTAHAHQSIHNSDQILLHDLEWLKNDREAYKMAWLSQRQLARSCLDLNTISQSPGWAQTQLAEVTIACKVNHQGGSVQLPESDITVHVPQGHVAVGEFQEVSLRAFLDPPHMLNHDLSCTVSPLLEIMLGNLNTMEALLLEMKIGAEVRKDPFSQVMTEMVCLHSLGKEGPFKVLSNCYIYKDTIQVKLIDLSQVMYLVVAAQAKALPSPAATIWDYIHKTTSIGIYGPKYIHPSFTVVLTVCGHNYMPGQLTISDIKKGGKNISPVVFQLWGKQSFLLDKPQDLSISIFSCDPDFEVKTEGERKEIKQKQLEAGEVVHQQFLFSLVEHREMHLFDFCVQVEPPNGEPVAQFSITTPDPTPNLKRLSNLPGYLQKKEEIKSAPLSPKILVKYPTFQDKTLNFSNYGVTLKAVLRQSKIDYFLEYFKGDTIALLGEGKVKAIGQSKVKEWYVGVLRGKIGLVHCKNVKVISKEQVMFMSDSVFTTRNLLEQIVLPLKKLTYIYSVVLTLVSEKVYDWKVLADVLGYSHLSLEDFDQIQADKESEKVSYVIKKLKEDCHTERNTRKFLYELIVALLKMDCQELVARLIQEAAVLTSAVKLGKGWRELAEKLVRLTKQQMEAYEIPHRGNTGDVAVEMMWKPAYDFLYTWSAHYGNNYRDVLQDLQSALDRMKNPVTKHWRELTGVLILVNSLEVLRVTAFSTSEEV
The experiment is described as follows: co-IP; cell-free Co-IP: recombinant human MACC1 and β-catenin co-incubated in an equimolar ratio in lysis buffer; IP of MACC1 and IP of β-catenin; both purified.

Sequences of proteins named here, by UniProt entry; tags and fusion partners are left off.
UniProt P35222: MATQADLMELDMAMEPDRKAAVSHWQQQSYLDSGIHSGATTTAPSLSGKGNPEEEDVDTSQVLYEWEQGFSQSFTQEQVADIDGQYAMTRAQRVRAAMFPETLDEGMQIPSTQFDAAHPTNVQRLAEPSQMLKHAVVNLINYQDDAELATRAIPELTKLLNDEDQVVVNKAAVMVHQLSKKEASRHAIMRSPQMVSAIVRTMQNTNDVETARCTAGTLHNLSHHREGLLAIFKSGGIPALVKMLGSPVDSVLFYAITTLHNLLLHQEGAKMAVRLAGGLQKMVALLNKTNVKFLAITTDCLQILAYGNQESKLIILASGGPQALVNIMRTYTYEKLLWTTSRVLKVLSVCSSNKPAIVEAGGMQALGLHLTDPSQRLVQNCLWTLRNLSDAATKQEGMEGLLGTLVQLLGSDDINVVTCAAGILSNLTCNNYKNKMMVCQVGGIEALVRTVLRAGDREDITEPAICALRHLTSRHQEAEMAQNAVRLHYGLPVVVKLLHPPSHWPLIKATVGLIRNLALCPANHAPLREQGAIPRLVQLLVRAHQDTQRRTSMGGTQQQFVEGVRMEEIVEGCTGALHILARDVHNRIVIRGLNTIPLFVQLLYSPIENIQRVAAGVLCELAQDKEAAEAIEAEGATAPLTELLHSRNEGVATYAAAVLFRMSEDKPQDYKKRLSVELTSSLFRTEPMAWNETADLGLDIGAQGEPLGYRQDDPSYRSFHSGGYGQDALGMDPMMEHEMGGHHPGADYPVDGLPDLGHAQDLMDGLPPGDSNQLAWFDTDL

In experiment [2] the target is T2, Metastasis-associated in colorectal cancer-1 (MACC1) (human (endogenous in SW620)) (UniProt Q6ZN28).
T2 sequence: T1 sequence
The experiment is described as follows: co-IP; Co-IP on whole-cell lysates, cytoplasmic and nuclear protein of SW620 cells.

Experiment [3] deals with recombinant human β-catenin (human) (UniProt P35222). As to the kind of experiment: co-IP; cell-free Co-IP: recombinant human MACC1 and β-catenin co-incubated in an equimolar ratio in lysis buffer; IP of MACC1 and IP of β-catenin; both purified.

No constants are given. Whether binding was seen depends on the method and setting. For part of these data: In cells and extracts the contact can be indirect. Some results given as binding are weak or reduced against the parent protein; the word gives no strength.

Turning to “recombinant human β-catenin (from UniProt P35222 1-781)”, in experiment [1], the binding result is listed as “binds”.
As to β-catenin (from UniProt P35222 1-781), the binding entry in experiment [2] is on record as “binds”.

B1: recombinant human MACC1 (protein, UniProt Q6ZN28 1-852)
chain: T1 sequence
As to B1, in experiment [3], the binding result is “binds”.

Values taken from paper PMC9507965.
